Consider two molecules from article PMC5913291.

Sequences of proteins named here, by UniProt entry; tags and fusion partners are left off.
UniProt Q14258: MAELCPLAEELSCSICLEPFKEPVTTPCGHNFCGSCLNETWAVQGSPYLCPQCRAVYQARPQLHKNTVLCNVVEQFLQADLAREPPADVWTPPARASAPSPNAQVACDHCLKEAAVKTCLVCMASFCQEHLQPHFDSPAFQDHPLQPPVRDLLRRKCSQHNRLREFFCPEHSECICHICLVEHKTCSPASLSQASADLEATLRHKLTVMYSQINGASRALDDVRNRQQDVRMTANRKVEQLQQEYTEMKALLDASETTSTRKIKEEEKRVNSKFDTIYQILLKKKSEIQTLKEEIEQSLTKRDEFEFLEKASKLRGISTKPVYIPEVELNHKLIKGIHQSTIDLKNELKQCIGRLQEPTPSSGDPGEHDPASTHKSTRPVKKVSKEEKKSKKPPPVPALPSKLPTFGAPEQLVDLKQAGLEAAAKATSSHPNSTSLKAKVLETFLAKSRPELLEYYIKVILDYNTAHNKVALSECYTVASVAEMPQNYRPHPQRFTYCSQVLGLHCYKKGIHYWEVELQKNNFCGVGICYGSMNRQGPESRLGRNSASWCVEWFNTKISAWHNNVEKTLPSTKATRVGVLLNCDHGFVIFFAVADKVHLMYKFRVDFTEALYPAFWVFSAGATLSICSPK

The assay has as its target T1, Flag-tagged RIG-I 2CARD domain (human, 1-284 amino acids) (human) (UniProt O95786).
T1 sequence: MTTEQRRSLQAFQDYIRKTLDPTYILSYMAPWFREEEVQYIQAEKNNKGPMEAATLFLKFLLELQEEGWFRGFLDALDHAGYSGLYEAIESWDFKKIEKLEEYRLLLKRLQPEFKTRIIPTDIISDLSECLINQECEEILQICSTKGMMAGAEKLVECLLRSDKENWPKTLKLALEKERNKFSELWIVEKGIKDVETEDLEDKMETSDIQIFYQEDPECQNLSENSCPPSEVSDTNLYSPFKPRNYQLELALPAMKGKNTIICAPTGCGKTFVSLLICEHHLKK
The assay is described as follows: pull-down; biotinylated cFP mixed with lysate of non-stimulated HEK293T cells transiently expressing CARD-Flag, 2 h at 4 °C, captured on streptavidin magnetic beads, washed three times with cell lysis buffer (50 mM Tris-HCl pH 7.5, 150 mM NaCl, 1 mM EDTA, 1% Nonidet P-40); immunoblot of the pulled-down proteins. In general terms: In western blotting, separated proteins are transferred to a membrane and probed.

Results are given in words; binding and its absence hold for the method and conditions named. In cells and extracts the contact can be indirect. Some binding calls cover weakened binding; strength is not graded here. Tags and fused reporters may be left off the sequences shown.

Turning to TRIM25 (from UniProt Q14258 1-630), the binding entry is on record as “binds”.

B1: Riplet (protein, UniProt Q8IUD6 1-432)
chain: MAGLGLGSAVPVWLAEDDLGCIICQGLLDWPATLPCGHSFCRHCLEALWGARDARRWACPTCRQGAAQQPHLRKNTLLQDLADKYRRAAREIQAGSDPAHCPCPGSSSLSSAAARPRRRPELQRVAVEKSITEVAQELTELVEHLVDIVRSLQNQRPLSESGPDNELSILGKAFSSGVDLSMASPKLVTSDTAAGKIRDILHDLEEIQEKLQESVTWKEAPEAQMQGELLEAPSSSSCPLPDQSHPALRRASRFAQWAIHPTFNLKSLSCSLEVSKDSRTVTVSHRPQPYRWSCERFSTSQVLCSQALSSGKHYWEVDTRNCSHWAVGVASWEMSRDQVLGRTMDSCCVEWKGTSQLSAWHMVKETVLGSDRPGVVGIWLNLEEGKLAFYSVDNQEKLLYECTISASSPLYPAFWLYGLHPGNYLIIKQVKV
As for B1, the binding result is “no binding”.
